Paper PMC4026536
These are yes or no findings as the source states them, for the method shown. Binding seen in cells or lysates may run through a third protein. Some results given as binding are weak or reduced against the parent protein; the word gives no strength. For some assays here: Tags and fused reporters may be left off the sequences shown.

T1: GST-tagged PKD3 (protein kinase D3) (human) (UniProt O94806)
T1 sequence: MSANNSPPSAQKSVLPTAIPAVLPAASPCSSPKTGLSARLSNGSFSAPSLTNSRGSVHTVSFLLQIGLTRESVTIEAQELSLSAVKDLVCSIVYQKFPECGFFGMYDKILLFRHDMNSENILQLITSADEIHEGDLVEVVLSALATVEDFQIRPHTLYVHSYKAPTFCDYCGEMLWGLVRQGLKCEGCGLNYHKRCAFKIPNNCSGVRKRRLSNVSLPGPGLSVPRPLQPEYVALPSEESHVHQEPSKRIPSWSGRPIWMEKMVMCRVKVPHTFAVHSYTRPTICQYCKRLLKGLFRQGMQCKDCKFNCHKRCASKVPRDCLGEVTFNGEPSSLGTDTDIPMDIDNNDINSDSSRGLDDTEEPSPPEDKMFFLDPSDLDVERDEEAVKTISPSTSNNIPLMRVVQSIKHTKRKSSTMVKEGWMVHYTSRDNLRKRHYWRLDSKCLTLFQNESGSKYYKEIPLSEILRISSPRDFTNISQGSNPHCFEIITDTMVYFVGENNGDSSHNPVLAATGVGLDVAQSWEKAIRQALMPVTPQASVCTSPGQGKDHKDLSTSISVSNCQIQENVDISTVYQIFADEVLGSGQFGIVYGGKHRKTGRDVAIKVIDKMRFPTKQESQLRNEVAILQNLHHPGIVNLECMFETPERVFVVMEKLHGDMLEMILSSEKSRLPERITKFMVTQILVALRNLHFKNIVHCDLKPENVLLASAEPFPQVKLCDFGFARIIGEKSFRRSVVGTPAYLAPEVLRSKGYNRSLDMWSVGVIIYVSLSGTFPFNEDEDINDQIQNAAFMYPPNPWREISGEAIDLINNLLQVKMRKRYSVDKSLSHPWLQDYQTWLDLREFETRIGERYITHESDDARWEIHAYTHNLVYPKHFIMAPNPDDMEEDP

T2: endogenous PKD3 (protein kinase D3) (human (endogenous in HeLa and MDA-MB-468)) (UniProt O94806)
T2 sequence: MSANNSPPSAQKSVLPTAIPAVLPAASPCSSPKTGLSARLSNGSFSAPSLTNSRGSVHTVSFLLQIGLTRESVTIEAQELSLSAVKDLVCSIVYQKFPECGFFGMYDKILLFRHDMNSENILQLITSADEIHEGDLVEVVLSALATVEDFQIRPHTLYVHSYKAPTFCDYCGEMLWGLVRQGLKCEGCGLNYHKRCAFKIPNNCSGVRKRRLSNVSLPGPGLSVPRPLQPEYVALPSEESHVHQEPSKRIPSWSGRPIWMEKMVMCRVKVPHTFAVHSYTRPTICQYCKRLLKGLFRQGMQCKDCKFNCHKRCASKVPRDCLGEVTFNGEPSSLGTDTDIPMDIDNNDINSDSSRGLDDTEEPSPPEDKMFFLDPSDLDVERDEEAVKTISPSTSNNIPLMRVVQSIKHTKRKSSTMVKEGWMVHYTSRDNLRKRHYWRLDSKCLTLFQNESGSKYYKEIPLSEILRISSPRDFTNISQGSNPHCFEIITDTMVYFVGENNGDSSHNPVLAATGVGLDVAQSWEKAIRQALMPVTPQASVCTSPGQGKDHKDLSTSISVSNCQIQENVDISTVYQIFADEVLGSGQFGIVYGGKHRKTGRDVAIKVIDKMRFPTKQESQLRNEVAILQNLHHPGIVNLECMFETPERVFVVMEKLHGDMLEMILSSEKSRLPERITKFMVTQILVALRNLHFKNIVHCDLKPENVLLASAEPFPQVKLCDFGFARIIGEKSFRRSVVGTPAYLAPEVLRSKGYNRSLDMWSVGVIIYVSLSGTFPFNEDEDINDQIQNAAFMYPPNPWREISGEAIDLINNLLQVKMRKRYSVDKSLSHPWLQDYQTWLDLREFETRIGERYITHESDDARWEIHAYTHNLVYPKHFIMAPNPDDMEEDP


Legend:
[1] = molecular target: T1, GST-tagged PKD3 (protein kinase D3) (human); assay: co-IP; reverse orientation of the overexpressed pair (PKD3 precipitated, PKD2 detected); data not shown
[2] = molecular target: T2, endogenous PKD3 (protein kinase D3) (human (endogenous in HeLa and MDA-MB-468)); assay: co-IP; endogenous proteins from HeLa or MDA-MB-468 lysates under normal growth conditions; immunoprecipitation with subtype-specific anti-PKD2 or anti-PKD3 antibody, blot for the other isoform

binding [1] | binding [2] | Binder
binds | – | FLAG-tagged PKD2 (protein kinase D2) (enzyme, UniProt Q9BZL6 1-878) MATAPSYPAGLPGSPGPGSPPPPGGLELQSPPPLLPQIPAPGSGVSFHIQIGLTREFVLLPAASELAHVKQLACSIVDQKFPECGFYGLYDKILLFKHDPTSANLLQLVRSSGDIQEGDLVEVVLSASATFEDFQIRPHALTVHSYRAPAFCDHCGEMLFGLVRQGLKCDGCGLNYHKRCAFSIPNNCSGARKRRLSSTSLASGHSVRLGTSESLPCTAEELSRSTTELLPRRPPSSSSSSSASSYTGRPIELDKMLLSKVKVPHTFLIHSYTRPTVCQACKKLLKGLFRQGLQCKDCKFNCHKRCATRVPNDCLGEALINGDVPMEEATDFSEADKSALMDESEDSGVIPGSHSENALHASEEEEGEGGKAQSSLGYIPLMRVVQSVRHTTRKSSTTLREGWVVHYSNKDTLRKRHYWRLDCKCITLFQNNTTNRYYKEIPLSEILTVESAQNFSLVPPGTNPHCFEIVTANATYFVGEMPGGTPGGPSGQGAEAARGWETAIRQALMPVILQDAPSAPGHAPHRQASLSISVSNSQIQENVDIATVYQIFPDEVLGSGQFGVVYGGKHRKTGRDVAVKVIDKLRFPTKQESQLRNEVAILQSLRHPGIVNLECMFETPEKVFVVMEKLHGDMLEMILSSEKGRLPERLTKFLITQILVALRHLHFKNIVHCDLKPENVLLASADPFPQVKLCDFGFARIIGEKSFRRSVVGTPAYLAPEVLLNQGYNRSLDMWSVGVIMYVSLSGTFPFNEDEDINDQIQNAAFMYPASPWSHISAGAIDLINNLLQVKMRKRYSVDKSLSHPWLQEYQTWLDLRELEGKMGERYITHESDDARWEQFAAEHPLPGSGLPTDRDLGGACPPQDHDMQGLAERISVL
– | binds | endogenous PKD2 (protein kinase D2) (enzyme, UniProt Q9BZL6 1-878) MATAPSYPAGLPGSPGPGSPPPPGGLELQSPPPLLPQIPAPGSGVSFHIQIGLTREFVLLPAASELAHVKQLACSIVDQKFPECGFYGLYDKILLFKHDPTSANLLQLVRSSGDIQEGDLVEVVLSASATFEDFQIRPHALTVHSYRAPAFCDHCGEMLFGLVRQGLKCDGCGLNYHKRCAFSIPNNCSGARKRRLSSTSLASGHSVRLGTSESLPCTAEELSRSTTELLPRRPPSSSSSSSASSYTGRPIELDKMLLSKVKVPHTFLIHSYTRPTVCQACKKLLKGLFRQGLQCKDCKFNCHKRCATRVPNDCLGEALINGDVPMEEATDFSEADKSALMDESEDSGVIPGSHSENALHASEEEEGEGGKAQSSLGYIPLMRVVQSVRHTTRKSSTTLREGWVVHYSNKDTLRKRHYWRLDCKCITLFQNNTTNRYYKEIPLSEILTVESAQNFSLVPPGTNPHCFEIVTANATYFVGEMPGGTPGGPSGQGAEAARGWETAIRQALMPVILQDAPSAPGHAPHRQASLSISVSNSQIQENVDIATVYQIFPDEVLGSGQFGVVYGGKHRKTGRDVAVKVIDKLRFPTKQESQLRNEVAILQSLRHPGIVNLECMFETPEKVFVVMEKLHGDMLEMILSSEKGRLPERLTKFLITQILVALRHLHFKNIVHCDLKPENVLLASADPFPQVKLCDFGFARIIGEKSFRRSVVGTPAYLAPEVLLNQGYNRSLDMWSVGVIMYVSLSGTFPFNEDEDINDQIQNAAFMYPASPWSHISAGAIDLINNLLQVKMRKRYSVDKSLSHPWLQEYQTWLDLRELEGKMGERYITHESDDARWEQFAAEHPLPGSGLPTDRDLGGACPPQDHDMQGLAERISVL
